Reference: article PMC10212976

Chains of the proteins cited; added tags and fusions are not shown. Lines headed by an entry give the natural chain unless they say otherwise; changes in a name come on top.
UniProt Q9USJ8: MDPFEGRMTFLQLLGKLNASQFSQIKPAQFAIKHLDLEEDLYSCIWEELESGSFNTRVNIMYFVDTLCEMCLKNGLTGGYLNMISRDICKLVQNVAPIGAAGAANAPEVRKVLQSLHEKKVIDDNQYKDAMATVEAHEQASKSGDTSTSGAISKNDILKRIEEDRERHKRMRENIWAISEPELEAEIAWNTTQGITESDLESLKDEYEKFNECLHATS
UniProt Q9USU7: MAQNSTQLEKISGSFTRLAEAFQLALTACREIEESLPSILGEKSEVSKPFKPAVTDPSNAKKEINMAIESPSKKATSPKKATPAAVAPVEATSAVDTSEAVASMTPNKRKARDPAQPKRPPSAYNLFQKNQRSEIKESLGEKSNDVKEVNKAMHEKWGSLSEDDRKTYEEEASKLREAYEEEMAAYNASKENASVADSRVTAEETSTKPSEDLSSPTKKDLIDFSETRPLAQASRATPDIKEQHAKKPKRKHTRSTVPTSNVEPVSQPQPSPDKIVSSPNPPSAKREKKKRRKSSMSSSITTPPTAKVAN
UniProt O60179: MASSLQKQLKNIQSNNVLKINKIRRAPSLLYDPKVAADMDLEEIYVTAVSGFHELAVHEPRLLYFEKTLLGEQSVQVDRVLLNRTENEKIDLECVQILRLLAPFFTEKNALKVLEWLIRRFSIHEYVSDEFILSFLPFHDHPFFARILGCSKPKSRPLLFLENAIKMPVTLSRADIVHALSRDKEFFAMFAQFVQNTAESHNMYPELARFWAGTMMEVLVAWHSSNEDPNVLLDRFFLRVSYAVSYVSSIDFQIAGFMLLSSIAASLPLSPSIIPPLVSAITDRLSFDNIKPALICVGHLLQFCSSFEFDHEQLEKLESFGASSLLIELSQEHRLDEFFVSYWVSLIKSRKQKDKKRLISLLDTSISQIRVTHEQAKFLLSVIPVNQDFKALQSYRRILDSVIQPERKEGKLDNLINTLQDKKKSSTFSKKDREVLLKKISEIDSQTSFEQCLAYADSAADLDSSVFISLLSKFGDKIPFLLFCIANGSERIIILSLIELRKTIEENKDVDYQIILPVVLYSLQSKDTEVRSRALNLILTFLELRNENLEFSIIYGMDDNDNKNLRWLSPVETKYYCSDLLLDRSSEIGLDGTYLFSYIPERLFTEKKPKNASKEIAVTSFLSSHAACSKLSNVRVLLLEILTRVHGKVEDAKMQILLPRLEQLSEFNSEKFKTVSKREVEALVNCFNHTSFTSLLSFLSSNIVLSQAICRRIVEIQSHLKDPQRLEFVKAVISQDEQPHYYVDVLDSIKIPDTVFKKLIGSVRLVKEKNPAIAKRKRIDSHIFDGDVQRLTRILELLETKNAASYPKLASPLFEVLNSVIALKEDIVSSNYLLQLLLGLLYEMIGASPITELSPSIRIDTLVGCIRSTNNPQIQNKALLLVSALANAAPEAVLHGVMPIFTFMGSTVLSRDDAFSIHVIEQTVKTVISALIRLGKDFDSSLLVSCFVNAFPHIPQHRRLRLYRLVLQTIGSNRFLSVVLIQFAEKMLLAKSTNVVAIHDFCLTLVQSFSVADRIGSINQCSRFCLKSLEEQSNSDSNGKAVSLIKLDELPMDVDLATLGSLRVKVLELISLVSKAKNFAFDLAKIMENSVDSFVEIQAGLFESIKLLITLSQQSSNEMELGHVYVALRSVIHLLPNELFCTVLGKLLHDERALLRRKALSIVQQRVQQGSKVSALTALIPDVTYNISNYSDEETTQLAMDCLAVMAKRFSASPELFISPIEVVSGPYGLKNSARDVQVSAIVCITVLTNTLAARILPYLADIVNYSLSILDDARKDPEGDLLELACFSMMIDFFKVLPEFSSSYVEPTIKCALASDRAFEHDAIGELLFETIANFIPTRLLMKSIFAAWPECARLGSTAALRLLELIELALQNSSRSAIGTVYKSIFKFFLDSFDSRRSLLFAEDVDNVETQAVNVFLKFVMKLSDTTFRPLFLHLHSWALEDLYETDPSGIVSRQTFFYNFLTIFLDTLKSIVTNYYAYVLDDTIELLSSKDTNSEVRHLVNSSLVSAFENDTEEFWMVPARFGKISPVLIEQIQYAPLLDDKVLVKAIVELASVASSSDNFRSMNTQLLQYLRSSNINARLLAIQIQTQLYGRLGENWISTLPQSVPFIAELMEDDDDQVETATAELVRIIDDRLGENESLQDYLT
UniProt P15398: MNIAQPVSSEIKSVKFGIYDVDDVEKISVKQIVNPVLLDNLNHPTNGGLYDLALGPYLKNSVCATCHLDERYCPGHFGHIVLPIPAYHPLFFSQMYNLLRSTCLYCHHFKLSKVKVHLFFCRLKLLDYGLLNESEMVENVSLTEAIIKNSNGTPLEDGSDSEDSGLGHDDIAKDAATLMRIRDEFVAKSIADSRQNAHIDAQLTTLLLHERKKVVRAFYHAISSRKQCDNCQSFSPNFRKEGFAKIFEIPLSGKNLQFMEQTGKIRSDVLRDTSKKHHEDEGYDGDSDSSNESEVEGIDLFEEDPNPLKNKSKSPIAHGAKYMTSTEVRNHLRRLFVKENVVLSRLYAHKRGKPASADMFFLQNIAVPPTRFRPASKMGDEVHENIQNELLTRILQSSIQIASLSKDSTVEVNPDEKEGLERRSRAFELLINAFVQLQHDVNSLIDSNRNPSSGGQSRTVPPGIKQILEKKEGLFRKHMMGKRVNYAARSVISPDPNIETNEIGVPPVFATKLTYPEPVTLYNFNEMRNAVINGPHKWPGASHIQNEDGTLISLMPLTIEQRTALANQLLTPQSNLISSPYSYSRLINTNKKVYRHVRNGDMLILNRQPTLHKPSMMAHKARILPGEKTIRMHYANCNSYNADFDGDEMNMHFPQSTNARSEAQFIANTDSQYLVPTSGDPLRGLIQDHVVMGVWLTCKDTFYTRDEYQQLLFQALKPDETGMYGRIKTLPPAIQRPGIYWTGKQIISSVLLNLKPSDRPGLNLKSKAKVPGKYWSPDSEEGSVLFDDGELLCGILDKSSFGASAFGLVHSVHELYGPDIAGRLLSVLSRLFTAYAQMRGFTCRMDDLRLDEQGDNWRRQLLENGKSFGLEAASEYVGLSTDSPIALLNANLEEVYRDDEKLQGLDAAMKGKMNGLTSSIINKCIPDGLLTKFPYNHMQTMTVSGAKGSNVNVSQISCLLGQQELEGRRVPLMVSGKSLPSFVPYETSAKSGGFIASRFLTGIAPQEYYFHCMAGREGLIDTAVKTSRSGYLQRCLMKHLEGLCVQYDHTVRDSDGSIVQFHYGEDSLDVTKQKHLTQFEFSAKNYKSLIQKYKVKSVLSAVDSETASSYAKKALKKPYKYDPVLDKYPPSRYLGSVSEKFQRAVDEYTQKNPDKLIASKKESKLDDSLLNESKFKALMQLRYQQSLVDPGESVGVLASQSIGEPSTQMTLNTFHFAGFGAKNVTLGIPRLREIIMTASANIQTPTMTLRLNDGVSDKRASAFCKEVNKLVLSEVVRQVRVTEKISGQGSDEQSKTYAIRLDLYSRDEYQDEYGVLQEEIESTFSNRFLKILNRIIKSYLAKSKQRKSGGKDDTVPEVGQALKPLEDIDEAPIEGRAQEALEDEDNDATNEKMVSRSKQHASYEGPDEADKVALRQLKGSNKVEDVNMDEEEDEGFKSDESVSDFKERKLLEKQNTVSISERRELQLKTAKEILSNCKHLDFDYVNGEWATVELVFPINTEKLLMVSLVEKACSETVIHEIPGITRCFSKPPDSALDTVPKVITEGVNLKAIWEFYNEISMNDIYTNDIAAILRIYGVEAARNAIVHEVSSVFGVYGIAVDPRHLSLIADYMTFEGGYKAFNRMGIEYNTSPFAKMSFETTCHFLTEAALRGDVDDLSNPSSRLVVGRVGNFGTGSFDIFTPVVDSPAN
UniProt O13877: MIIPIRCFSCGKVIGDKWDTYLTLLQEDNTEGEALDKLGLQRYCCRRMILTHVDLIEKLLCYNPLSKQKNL

Target: T1, Seb1 fused to the TurboID biotin ligase (S. pombe) (UniProt Q9UTE3)
T1 sequence: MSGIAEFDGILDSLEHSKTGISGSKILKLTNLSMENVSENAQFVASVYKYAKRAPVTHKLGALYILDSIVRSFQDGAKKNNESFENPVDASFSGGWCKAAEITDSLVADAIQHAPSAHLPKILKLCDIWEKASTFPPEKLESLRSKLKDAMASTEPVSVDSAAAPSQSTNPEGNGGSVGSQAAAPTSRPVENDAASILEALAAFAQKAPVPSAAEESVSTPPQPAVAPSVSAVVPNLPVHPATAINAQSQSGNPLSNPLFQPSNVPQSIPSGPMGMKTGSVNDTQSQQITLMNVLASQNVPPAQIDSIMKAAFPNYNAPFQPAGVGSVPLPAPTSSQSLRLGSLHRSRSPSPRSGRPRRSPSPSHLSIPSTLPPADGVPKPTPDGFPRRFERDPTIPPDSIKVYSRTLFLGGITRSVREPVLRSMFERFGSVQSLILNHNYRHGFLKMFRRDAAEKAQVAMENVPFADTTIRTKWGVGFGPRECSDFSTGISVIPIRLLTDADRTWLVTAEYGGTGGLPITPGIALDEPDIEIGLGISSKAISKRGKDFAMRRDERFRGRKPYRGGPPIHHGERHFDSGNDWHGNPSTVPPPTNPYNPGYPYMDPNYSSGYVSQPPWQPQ
Test: proximity labelling; Seb1-TurboID expressed in S. pombe grown in YES with 50 µM biotin; RIPA lysate treated with benzonase; biotinylated proteins captured on Streptavidin-Sepharose, on-bead trypsin digest, LC-MS/MS; n = 1

Molecule | binding
SPCC4b3.08 (from UniProt Q9USJ8) | binds
SPBC28F2.11 (from UniProt Q9USU7) | binds
Utp10 (from UniProt O60179 1-1649) | binds
Nuc1 (from UniProt P15398 1-1689) | binds
Rpb10 (from UniProt O13877 1-71) | binds
Rpa34 (protein, UniProt Q9USZ4 1-251) MAKSSEFVNEESSEDESSVSSIEDQHSSKEPEQSVESNNHGESNAQEDVAEIAGLEKVQGKPVLTTNDLKKESNVFLVRLPPGMSADQISQLKVGSKPTVELKQENENTYQIREESTSSVRVFLPDEQGSYTSNEIKTGYVITETPKISQNIDTGITIPTQAPLVPQRKNLRQHFRPIGDAVGPESEPEAEPKSGIKEHILQETGDATVEELQNKGKEKQKELKKGKREKKDEEEKPKKKKQKKSSKKEKN | binds
Prh1 (protein, UniProt Q03319 1-719) MVKVSGKLRNGGSITKQNLTDGLVGGQRIKAPNKKKNRKASKNTTKKSTVSVVNFLEQDTDFGANEVVGSDNSSPEKRSENSPSKRKDILEQRKNLPIWEAHDTLCQQIQDNRVIVVVGETGSGKSTQIPQFLNECPYAQEGCVAITQPRRVAAVNLAKRVAAEQGCRLGEQVGYSIRFDDTTSKKTRIKYLTDGMLLRELINDPILSQYHTLILDEAHERTLMTDMLLGFVKKIIKKRPALRVIIMSATLNAERFSEFFDGAEICYISGRQYPVQIHYTYTPEPDYLDACLRTIFQLHTKLPPGDILVFLTGQDEIEALEALIKSYSKQLPSNLPQIQACPLFASLPQEQQLQVFLPALANHRKVVLSTNIAETSVTISGIRYVIDTGLAKIKQFNSKLGLESLTVQPISQSAAMQRSGRAGREAAGQCYRIYTEADFDKLPKETIPEIKRIDLSQAVLTLKARGQNDVINFHYMDPPSKEGLLRALEHLYSIGALDDNGHINDLGYQMSLIPLLPSLARAVLAAREHNCLSEVIDVVSCLSTDSMFLFPQEKRDEAIEARLKFLHSEGDLLTCLNALRQYLESSHDSRKQWCSQNFINRRALKTILDIRKQLREHCLKDGWELNSSPEVNSENLLLSFLSGYITNTALLHPDGSYRTIIGNQTISIHPSSSLFGKKVEAIMYHELVFTTKSYVRGVSSIRSNWLNAVAPHYLARRST | binds
Rpa49 (protein, UniProt O14086 1-425) MAGDELKGKKRKYRDSHSGDEKSVKILPLSESSLPPLVTTISGFYPPENTRFQLLKKSNQSNRDASLIGRTERVQFEAKNQSTATVEANYCLAVADKTGRVKKIVPAKYLNTFERNILALQEKDKFLKKKHGTVSGTVMEQRANLGLAFGTRKSQKAIMEESANRVKAETLGDVKDQLVSNVQKATEALPTQEDIAAAQAQDRPIPPVNVGAESIEDAYKLEDIIPKEEFSAIYIKPLLENPDERNWAKLLPYRHSLFINERFQRLLSIEEVDQKRARILYYISLLQAFLFSRRSVGNRETLRKKLADPPEILIDGLIKRFTQTTGIGSVQVSSREVDKIICYILVLCLIVDNYSTDVLTLANDLNVKTMKANELFRTVGCRIMAYTETQRMALGLNKTDAKNHKRAVLKIPLEFPKPRRGRARN | binds
Rrn3 (protein, UniProt Q10110 1-599) MPSIISSTNPQYINKCVNNGTMASSTNVPDRTVGSKSFASSVSKNDGRLMQQMLRAFVNKALDDKAEGNFAGYEDLRRQFAAKSDTKDAPSSLQLQNLLSALTCNVSRLDSSNSSLVMSVLDSVWVSRDESFVRCYTRFLGNLISAQSNYLPLVMTMLIQHMLYRPDSLAIHYEHAHMALKYVLELVPRAHSFLYSSILEEFPYKDESLLAQMTYISNVLSICEYVPSIKGPVLHAIIDKIIQIDVEIQVEVDDDDEEEDEVVTDDDGTSNADSEVITASTLYERHTAISSEMTSSTILTPPSLTDTRQLMQQLDQLLYTLFSYLDSNLKSTSRDRYLVYNSLIKSFVNTVLKTFRCRYTQFLIFWASQLDPEFTDIFLGVLTEVCLDPSQPYTLRLSGAMYIGSYVARAKALEKNTIQIIVNMMTRWVEAYLDQCENELSDDLLSKHSVFYAINQSIFYIFCFRWRELCVSDESESMEPRPNEWIPGLEILHRSVLSRLNPLRYCSPNIVLQFAKVANHLNFMYVYSIIEQNRKGIFREGFDTMDAYFPFDPYRLTKSSIIVQPFYNEWQQIPGLDDDEEEEDTDYESSTVMLGESPF | binds
Rpa43 (protein, UniProt O43036 1-173) MPDLSLYKQTVDLYLSIAPGHSRDPLNAIQEHMDSMILSKLPRINGIVLAYDNIRFLEKSAKVMYDSPFSFIWVRVDVLVFSPKKGDCLEGKINLVSPSHIGLLILGIFNASIPRKSIPKDWIFIEPDTTEEQGRWKTNDGNILEPGKDLEFVVDGIQREAGLTMVQGTLANS | binds
Rpc40 (protein, UniProt O94616 1-348) MAAVDRSRTEISVLSDRVTDVGSVDFPGYYFDEDNIWDLDKFKKNLKVSITSLDQETMVFEISGIDASIANAFRRILIAEIPTLAFEFVYIINNTSIIQDEVLSHRIGLVPISADPDMFKWFQHPLPGQEATHTDYDTVVFSLNKKCEFNKNAATDEKDPKRLYVNSEVYSGDLIWKPQGRQEERFADNPIRVVNPDIVVAKLRPGQEIDLEAHAILGIGQDHAKFSPVATASYRLLPTIHILSPIEGEDAVKFQKCFPKGVIELEEGPDGKKQARVADVRKDTVSRECLRHPEFADKVQLGRVRDHYLFSVESTGIMKPDVLFIKSIAVLKSKCLAVKSSLQNISSD | binds

These are yes or no findings as the source states them, for the method shown. In cells and extracts the contact can be indirect. These calls come from enrichment with a bait or labelling near it, and not all partners need be listed. Sequences can lack the tags named with a protein.
